In the experiment the target is YFP-tagged TbMad2 (T. brucei) (UniProt Q57ZD6). Kind of experiment: affinity purification with mass spectrometry.

Sequences of proteins named here, by UniProt entry; tags and fusion partners are left off. A change or cut given only in a name is not applied to a line headed by its entry.
UniProt Q57ZD6: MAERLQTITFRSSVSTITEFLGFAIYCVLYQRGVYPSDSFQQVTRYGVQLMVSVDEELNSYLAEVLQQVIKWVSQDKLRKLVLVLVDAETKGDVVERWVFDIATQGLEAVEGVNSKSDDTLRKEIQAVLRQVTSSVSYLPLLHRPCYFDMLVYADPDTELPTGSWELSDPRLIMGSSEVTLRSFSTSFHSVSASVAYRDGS
UniProt Q9NC99: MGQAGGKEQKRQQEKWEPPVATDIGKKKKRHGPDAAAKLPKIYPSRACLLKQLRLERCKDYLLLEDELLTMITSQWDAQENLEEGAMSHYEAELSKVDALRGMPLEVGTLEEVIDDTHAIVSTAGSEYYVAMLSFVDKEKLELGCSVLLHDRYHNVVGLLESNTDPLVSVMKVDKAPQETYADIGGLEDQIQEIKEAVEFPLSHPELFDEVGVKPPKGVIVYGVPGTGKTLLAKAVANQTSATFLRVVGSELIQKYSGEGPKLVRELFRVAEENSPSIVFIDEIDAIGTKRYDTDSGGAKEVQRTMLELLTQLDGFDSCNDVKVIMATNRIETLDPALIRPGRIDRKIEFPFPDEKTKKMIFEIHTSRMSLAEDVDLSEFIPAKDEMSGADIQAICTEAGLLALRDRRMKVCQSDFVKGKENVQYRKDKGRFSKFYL
UniProt Q9NCA0: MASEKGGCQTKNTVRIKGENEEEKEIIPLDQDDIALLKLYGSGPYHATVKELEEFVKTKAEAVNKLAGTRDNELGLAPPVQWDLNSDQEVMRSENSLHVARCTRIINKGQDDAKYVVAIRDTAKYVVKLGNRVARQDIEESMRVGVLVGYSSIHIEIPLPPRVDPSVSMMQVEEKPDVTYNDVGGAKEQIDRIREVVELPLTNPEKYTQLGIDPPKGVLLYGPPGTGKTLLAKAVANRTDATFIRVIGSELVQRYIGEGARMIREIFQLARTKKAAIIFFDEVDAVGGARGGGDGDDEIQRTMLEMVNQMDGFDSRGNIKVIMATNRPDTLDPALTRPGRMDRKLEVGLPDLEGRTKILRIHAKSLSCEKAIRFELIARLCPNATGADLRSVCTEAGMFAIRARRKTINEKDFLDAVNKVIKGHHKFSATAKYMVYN
UniProt Q8WRU0: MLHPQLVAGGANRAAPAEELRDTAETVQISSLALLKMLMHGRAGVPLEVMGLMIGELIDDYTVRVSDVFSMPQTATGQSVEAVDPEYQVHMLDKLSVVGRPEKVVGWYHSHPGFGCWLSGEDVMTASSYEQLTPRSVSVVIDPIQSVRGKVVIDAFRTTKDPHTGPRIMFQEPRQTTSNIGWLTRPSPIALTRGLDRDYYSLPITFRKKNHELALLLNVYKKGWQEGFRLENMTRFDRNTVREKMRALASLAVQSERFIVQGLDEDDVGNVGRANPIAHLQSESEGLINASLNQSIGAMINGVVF
UniProt Q9NC98: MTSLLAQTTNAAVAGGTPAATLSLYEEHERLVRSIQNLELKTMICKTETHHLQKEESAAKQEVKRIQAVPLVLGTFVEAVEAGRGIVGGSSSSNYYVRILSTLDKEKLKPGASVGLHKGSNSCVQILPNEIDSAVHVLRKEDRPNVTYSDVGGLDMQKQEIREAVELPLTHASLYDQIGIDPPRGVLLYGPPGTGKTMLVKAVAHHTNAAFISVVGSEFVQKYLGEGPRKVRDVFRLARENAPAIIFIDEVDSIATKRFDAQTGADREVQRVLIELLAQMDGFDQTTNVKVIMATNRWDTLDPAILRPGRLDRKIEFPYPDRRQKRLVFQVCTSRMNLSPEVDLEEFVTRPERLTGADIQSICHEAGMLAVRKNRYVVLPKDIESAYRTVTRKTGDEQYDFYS

These are yes or no findings as the source states them, for the method shown. In cells and extracts the contact can be indirect. These calls come from enrichment with a bait or labelling near it, and not all partners need be listed.

For the molecule RPT2 (from UniProt Q9NC99), the binding entry is given as “binds”.
The result for RPT1 (from UniProt Q9NCA0) reads “binds”; that for RPN11 (from UniProt Q8WRU0), “binds”; that for RPT3 (from UniProt Q9NC98), “binds”.

B1: RPT5 (protein, UniProt Q9NC96 1-445)
chain: MTQDTARATGGAAEGDRGGTSDASAAAQLSPEELENIDSLTNQAPRNRSTQLQREIHQLKNEERTMSSELAGLRREVEESQKRVRDSNKLPYLVASIAEVLDLEADDQDVEELNVGKKKSRHPQKSAIIKTSSRQTVFLPVVGLVDANKLSPQDLVGVNKDTFLVLEELPPEYDSRVKAMEIVEKPKEKYTDVGGLDKQINEMIEAVVLPITEKEKYVRIGIKPPKGVLLYGSPGTGKTMLARACAASTDACFLRLAGPQLVQMYIGEGARILRDAFALAKKRAPTIIFIDELDAIGSRRSDEGSKHGSREVQRRMLELLSLLDGFGSTDDVKVIAATNRIDVLDPALLRRGRIDRKVEFTLPDEEARAHILQIHSRRMALHGDVNFEEISRMTEDMNGAQLKAVCVEAGMLALRNERVYVAHEDFAEGVTAVQARKKSSLNYYA
In the case of B1, the binding entry is on record as “binds”.
